According to patent US5874455A, “Method for treatment of cataract with radical scavenger” (priority 1993, dated 1999):
At least one structure is not confirmed: it was looked up by name or label, or the drawing left a doubt.

Tests used:
[1] = system: Diamide-Treatment Mice Lenses; test: GSH content in diamide-treated mice lenses; assay type: cell-based, mouse (ddY)
Protocol: Male ddY mice, 6 weeks old, were killed by decapitation, and the globes were excised. The lenses were removed by a posterior approach and then transferred on a nylon net to an petri containing D-MEM medium (low glucose). The lenses were incubated at 37 ° C. for […] and clear transparent lenses were collected to be used for following experiments. […] Those were transferred to an incubation test tube containing 3 ml of isotonic HEPES buffer (pH 7.4) containing 5.5 mM glucose with 1 mM DDC or GE (glutathione isopropyl ester). The diamide treated and non-treated controls were treated by the 5 hr--incubation without the above agents. The wet weight of these treated lenses were determined.
The treated lenses were homogenized with 0.5 ml of purified water by Teflon homogenizer. GSH in the homogenate was determined by the method of Beutler using DTNB and the HPLC method followed.
Fifty microliter of the lens homogenate were added into 100 μl of acetonitrile containing 100 μg of sodium pantothenate (internal standard) and centrifuged at 12,000 rpm for 10 min. […]

[2] = system: Diamide-Treated Mice Lenses; test: Na+/K+ ratio and Ca2+ contents in diamide-treated mice lenses; assay type: cell-based, mouse (ddY); settings: 1 Mm (so in the source), vs control levels
Protocol: Male ddY mice, 6 weeks old, were killed by decapitation, and the […] were excised. The lenses were removed by a posterior approach and then transferred on a nylon net to a petri dish containing D-MEM medium (low glucose). The lenses were incubated at 37° C. for 19-20 hr in CO2 incubator under 5% CO2 -air and clear transparent lenses were collected to be used for following experiments. The lenses were incubated at 37° C. for 1.5 hr in 3 ml of isotonic HEPES buffer (10 mM HEPES, 136.2 mM NaCl, 5.3 mM KCl, 1.0 mM K2 HPO4, 1.7 mM CaC2 .cndot.2H2 O, 5.5 mM glucose pH 7.4) containing 1 mM diamide and the HEPES buffer without glucose. Those were transferred to an incubation test tube containing 3 ml of isotonic HEPES buffer (pH 7.4) with 1 mM DDC or GE. The diamide treated and non-treated controls were treated by the 5 hr-incubation without the above agents. The wet weight of these treated lenses were determined. Lenses were dried in vacuo at 100° C. for 8 hr, and then digested in 60% nitric acid (100 μl/lens) at 80° C. to degrade organic substances. One milliliter of purified water was added to the digests, and centrifuged at 3000×g for 10 min. […] One tenth milliliter of 100 μg/ml lanthanum chloride was added to the residual supernatant and used for measurement of Ca^2+, Na^+,K^+ and Ca^2+ contents in the lenses were determined by atomic absorption spectrometer (Hitachi 180-80, Tokyo, Japan).

## CCN(CC)C(=S)S [DDC, Diethyldithiocarbamate]
[1]; DTNB method, 1 mM agent
  total GSH in diamide-treated lenses (in words): restored by the control GSH level
[1]; HPLC method
  restoring of GSH (in words): restoring of GSH
[2]
  Ca2+ content (in words): restored completely
